Results are given in words; binding and its absence hold for the method and conditions named. Some entries that bind do so weakly or less than the wild type.
Target: anti-CD47 antibody TJC4
Assay: indirect ELISA / blocking IC50 against anti-CD47 TJC4; own IC50 not given

B1: anti-idiotypic antibody 34D8H11B5 (antibody, V domains shown)
VH: EVQLQQSGPELEKPGASVKISCKASGYSFSDYNMNWVKQGNGESLEWIGYVDPYYGDTRYNQNFKGKATLTVDKSSSTAYMQLKSLTSEDSAVYYCALSETPRAMDYWGQGTSVTVSP
VL: DIVMTQSPATLSVTPGDRVSLSCRASQSISDYLHWYQQKSNESPRLLIKYASQSISGIPSRFSGSGSGSDFTLNINSVEPEDVGVYYCQNGHSLPLTFGAGTKLELK
- binding: binds

Source: patent US20230393144A1
